Measurements reported in PubChem BioAssay AID1259308 (NCATS, 2017).
Here is a random part of about 59,000 deposited reagents. Of all reagents, about 1,510 (2.6%) were called active. 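Calls use total luciferase alone and ignore viability, so some active siRNAs may act by altering cell number.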 A number with no mark means an inactive call.

Test: 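Knock-downs that increase output of a recombinant reporter protein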 (primary screen)
System: human HEK293 embryonic kidney cells stably expressing firefly luciferase (HEK-CMV-Luc2-Hygro)
Reagents: single siRNA against human genes, 0.8 pmol siRNA per well
Duration: 72 h
Detection: 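Reporter luminescence and viable-cell signal on separate replicate plates, given as percent of non-targeting control and median/MAD z-scores, plus per-cell luciferase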
Reading the numbers: total luciferase, z-score and total luciferase, % of control: higher = more reporter protein produced; luciferase per cell, z-score: higher = more reporter output per viable cell; viable cells, % of control: higher = more viable cells
Active means: 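An siRNA counts as active if its total luciferase robust z-score exceeds 3; genes with two or more such siRNAs out of three were retested with fresh siRNAs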
Calls: active = raised luciferase; inactive = no rise

| gene | PubChem SID | total luciferase, z-score | total luciferase, % of control | luciferase per cell, z-score | viable cells, % of control |
| --- | --- | --- | --- | --- | --- |
| ARL2BP | SID160736589 | 1.22 | 106 | 0.832 | 95.3 |
| ARL2BP | SID160736590 | 0.223 | 86.3 | -0.102 | 99.1 |
| ARL2BP | SID160736591 | -1.96 | 42.9 | -2.24 | 86.5 |
| KLRC2 | SID160776311 | -0.212 | 77.7 | 0.145 | 83.5 |
| KLRC2 | SID160776312 | -0.8 | 66 | -0.734 | 89.4 |
| KLRC2 | SID160776313 | 0.546 | 92.8 | -0.0272 | 104 |
| DMRTA1 | SID160747339 | -0.528 | 71.4 | -0.457 | 90 |
| DMRTA1 | SID160747340 | -0.171 | 78.5 | -0.659 | 104 |
| DMRTA1 | SID160747341 | -0.00694 | 81.7 | -0.167 | 95.5 |
| SMR3A | SID160724354 | 0.452 | 90.9 | 0.118 | 98.4 |
| SMR3A | SID160732885 | -0.608 | 69.8 | -0.219 | 82.6 |
| SMR3A | SID160738187 | 0.0995 | 83.9 | -0.00291 | 93.8 |
| CYP1A1 | SID160751186 | -1.06 | 60.8 | -0.8 | 83.9 |
| CYP1A1 | SID160751198 | -0.511 | 71.7 | -0.383 | 88.7 |
| CYP1A1 | SID160751209 | 1.38 | 109 | 1.45 | 83.5 |
| TYMSOS | SID160768284 | 0.54 | 92.6 | 0.621 | 87.9 |
| TYMSOS | SID160768285 | -0.797 | 66 | -1.03 | 96.7 |
| TYMSOS | SID160768287 | 0.441 | 90.7 | 0.315 | 93.2 |
| UBE3D | SID160753544 | 0.377 | 89.4 | -0.246 | 107 |
| UBE3D | SID160753545 | -0.608 | 69.8 | -0.461 | 88.1 |
| UBE3D | SID160753546 | -1.02 | 61.6 | -0.933 | 88 |
| HMHB1 | SID160733682 | -0.443 | 73.1 | -0.413 | 91 |
| HMHB1 | SID160733683 | 0.935 | 100 | 0.674 | 94 |
| HMHB1 | SID160746749 | 2.04 | 122 | 2.57 | 69.5 |
| HMGA1 | SID160775068 | -0.514 | 71.7 | -0.848 | 100 |
| HMGA1 | SID160775069 | -0.294 | 76 | -0.926 | 108 |
| HMGA1 | SID160775070 | -0.0759 | 80.4 | 1.17 | 65.9 |
| RPS12P4 | SID160725308 | -2.25 | 37.1 | -0.491 | 47.2 |
| RPS12P4 | SID160733274 | -2.29 | 36.3 | -1.8 | 65.1 |
| RPS12P4 | SID160766690 | 0.343 | 88.7 | 0.511 | 86.7 |
| CCNP | SID160749810 | -1.06 | 60.8 | -0.619 | 80 |
| CCNP | SID160749811 | 0.326 | 88.4 | 0.279 | 91.8 |
| CCNP | SID160749812 | 0.341 | 88.7 | -0.0352 | 100 |
| PPP4R3B | SID160745848 | 0.437 | 90.6 | 0.959 | 78.6 |
| PPP4R3B | SID160745849 | -0.349 | 75 | -0.489 | 95.3 |
| PPP4R3B | SID160745850 | -2.46 | 33 | -3.76 | 99.2 |
| NEUROG3 | SID160731333 | -0.0327 | 81.2 | -0.26 | 97.2 |
| NEUROG3 | SID160739691 | -0.285 | 76.2 | -0.579 | 99.2 |
| NEUROG3 | SID160739692 | 1.24 | 107 | 0.991 | 91.7 |
| RAD23B | SID160715594 | 0.963 | 101 | 0.848 | 90.3 |
| RAD23B | SID160715595 | 1.03 | 102 | 0.499 | 100 |
| RAD23B | SID160715596 | 1.07 | 103 | 1.64 | 74.9 |
| ZNF101 | SID160754598 | 1.88 | 119 | 1.14 | 98.7 |
| ZNF101 | SID160754599 | -2.05 | 41 | -0.176 | 48 |
| ZNF101 | SID160754600 | -2.55 | 31.2 | -2.79 | 72.6 |
| MATN2 | SID160776994 | 0.242 | 86.7 | -0.325 | 106 |
| MATN2 | SID160776995 | -0.372 | 74.5 | -0.626 | 98.2 |
| MATN2 | SID160776996 | 0.631 | 94.4 | 0.618 | 89.7 |
| PCOLCE2 | SID160738093 | 4.49 (active) | 171 | 2.4 | 102 |
| PCOLCE2 | SID160738094 | -0.109 | 79.7 | -0.402 | 99 |
| PCOLCE2 | SID160738096 | 1.4 | 110 | 1.1 | 91.6 |
| ABHD18 | SID160750140 | 0.847 | 98.7 | 0.511 | 96.4 |
| ABHD18 | SID160750141 | -2.31 | 35.9 | -3.14 | 91.7 |
| ABHD18 | SID160750142 | -0.65 | 69 | 0.587 | 66 |
| ENO1 | SID160760400 | -1.27 | 56.6 | -1.4 | 91.4 |
| ENO1 | SID160760410 | 2.48 | 131 | 1.98 | 87.1 |
| ENO1 | SID160760418 | -0.0344 | 81.2 | -0.416 | 101 |
| SIVA1 | SID160728762 | -0.5 | 71.9 | -0.228 | 85.4 |
| SIVA1 | SID160728763 | -0.653 | 68.9 | -0.587 | 89.9 |
| SIVA1 | SID160728764 | 0.327 | 88.4 | -0.277 | 106 |
| NLRP10 | SID160764007 | 0.263 | 87.1 | 0.13 | 94.1 |
| NLRP10 | SID160764008 | -1.93 | 43.6 | -1.34 | 69.2 |
| NLRP10 | SID160764009 | 1.14 | 105 | 1.88 | 71.1 |
| KBTBD11 | SID160723441 | 0.98 | 101 | 1.07 | 85.4 |
| KBTBD11 | SID160723442 | -0.0915 | 80.1 | -0.277 | 96.2 |
| KBTBD11 | SID160735260 | 0.157 | 85 | 0.425 | 84.9 |
| ZNF382 | SID160752918 | -0.822 | 65.5 | -0.196 | 77.1 |
| ZNF382 | SID160752919 | 0.324 | 88.3 | 0.214 | 93.3 |
| ZNF382 | SID160752920 | -0.771 | 66.6 | -1.1 | 99.2 |
| ARHGAP30 | SID160762521 | 0.146 | 84.8 | 0.191 | 90.1 |
| ARHGAP30 | SID160762522 | 0.161 | 85.1 | -0.21 | 100 |
| ARHGAP30 | SID160762523 | 0.454 | 90.9 | 0.46 | 90 |
| PLPP1 | SID160720423 | -1.26 | 56.8 | -1.69 | 98.9 |
| PLPP1 | SID160720425 | -0.731 | 67.3 | -0.615 | 88.5 |
| PLPP1 | SID160732070 | -0.979 | 62.4 | -1.3 | 98.2 |
